Our source for the binding signal values is article PMC7819943, “Rice protein-binding microarrays: a tool to detect cis-acting elements near promoter regions in rice”.

Some of the results follow.

The assay addresses T1, OsSMF1 (Oryza sativa, UniProt Q6ZLB0 1-436).
T1 sequence: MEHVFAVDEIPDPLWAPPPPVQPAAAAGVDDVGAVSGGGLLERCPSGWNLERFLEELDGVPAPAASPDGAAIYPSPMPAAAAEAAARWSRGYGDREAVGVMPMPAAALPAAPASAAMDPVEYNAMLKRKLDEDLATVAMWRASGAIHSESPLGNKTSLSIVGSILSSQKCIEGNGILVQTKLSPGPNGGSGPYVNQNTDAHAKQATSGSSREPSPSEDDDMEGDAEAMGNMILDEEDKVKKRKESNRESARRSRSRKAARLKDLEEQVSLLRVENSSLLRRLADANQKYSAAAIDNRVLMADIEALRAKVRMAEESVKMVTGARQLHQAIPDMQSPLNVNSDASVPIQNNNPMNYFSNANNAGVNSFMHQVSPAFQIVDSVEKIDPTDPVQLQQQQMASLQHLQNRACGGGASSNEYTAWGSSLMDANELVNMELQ
The assay can be described thus: protein-binding microarray (RPBM); PBS, 2% BSA, 51.3 ng/ul salmon testes DNA, 50 uM zinc acetate, 200 nM TF, 25 C, 1 h; high values mean tight binding. The following applies: protein: recombinant; tags: N-terminal polyhistidine and DsRed monomer fusion (pET32a); chain copies: 2; label: CyDye5-dUTP incorporated in the synthesized complementary strand; 3' TTTTT single-stranded linker to array surface; dsDNA, one strand shown. The procedure, abridged:
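Transcription factors, each fused N-terminally to a polyhistidine tag and DsRed, were expressed in E. coli BL21-CodonPlus and purified on Ni–NTA. A custom Agilent array was made double-stranded by primer extension with Cy5-dUTP and blocked with 2% BSA. It was incubated with 200 nM protein in PBS, 2% BSA, salmon testes DNA and 50 µM zinc acetate at 25 °C for 1 h, then washed. The binding signal is per-feature fluorescence intensity (arbitrary units) read on an Axon 4000B scanner.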
Regarding “CCCGAGGCGCAATATAATTGTTCCACGTTACACAGTATATCGGAGTCACCTAGTGCAG”, the binding signal is 3290 fluorescence intensity (a.u.).

As to “TAGTAGTAGAATACACACACGCACATTGCCTGTGTTGTTACGGAGTCACCTAGTGCAG”, the binding signal was 3280 fluorescence intensity (a.u.). To “AATGGCAGCTACCTCAGCCGTGCTTGCACTTTGGGCAAAACGGAGTCACCTAGTGCAG” belongs 18000 fluorescence intensity (a.u.); to “GATTGGTAGTATTTAGTTGTGTATAATGTATTATTAGGTTCGGAGTCACCTAGTGCAG”, 3720 fluorescence intensity (a.u.). To “GATGCCGTGTCACCCACCGCCTCCTCCTCTCCCGCCTCGCCGGAGTCACCTAGTGCAG” belongs 8060 fluorescence intensity (a.u.).

With “ATATGTACTTTTGGAATCTCCTATCATGTGCTGCAGCCTCCGGAGTCACCTAGTGCAG”, the binding signal was 20900 fluorescence intensity (a.u.).

Regarding “CATTTATGAATCCTTCACATCTCTTCTGGATTGCTCTCTCCGGAGTCACCTAGTGCAG”, the binding signal is 22800 fluorescence intensity (a.u.). The result for “GCTCCTCCCCTGCTAGTCAGCCAACAACATTCGATCTTGGCGGAGTCACCTAGTGCAG” reads 3610 fluorescence intensity (a.u.). The result for “ATACGCGTACGCCGTGCATACGTGTCGGCGTGTATATATCCGGAGTCACCTAGTGCAG” reads 33300 fluorescence intensity (a.u.). In the case of “GACAGGCAGGCCAGAGCGGCGTGAGTGAGCTATACAGGAACGGAGTCACCTAGTGCAG”, the binding signal was 18300 fluorescence intensity (a.u.). To “TATATTTGTCACGTAAGCTCCACATCAGTGCCACATGTGACGGAGTCACCTAGTGCAG” belongs 16800 fluorescence intensity (a.u.); to “CTGTATCAGATGATCTGGAAGTTTGCTTCCATCATTCAATCGGAGTCACCTAGTGCAG”, 3670 fluorescence intensity (a.u.); to “TGCATTTGCCTTATAGAGTTGTTTCCCTTTTGCAACAATGCGGAGTCACCTAGTGCAG”, 25500 fluorescence intensity (a.u.). Turning to “GCACCGTACTGTGCACGTCATCCATTTGTCTGTTTGTGTTCGGAGTCACCTAGTGCAG”, the binding signal was 10000 fluorescence intensity (a.u.).

For the sequence “CTGTGGTGGACTTCATTGTGATATACCATGTTTGAGGGTTCGGAGTCACCTAGTGCAG”, the binding signal was 3140 fluorescence intensity (a.u.).

With “CTCCATCTCGCAGTCGCAGTGCCAGCTAAGGCCTTGTACACGGAGTCACCTAGTGCAG”, the binding signal was 3240 fluorescence intensity (a.u.). To “CCACTTGGCCCCACCCCACCGGGCGCGTGGCACGAATCTCCGGAGTCACCTAGTGCAG” belongs 3600 fluorescence intensity (a.u.); to “ACCGACACGCCATGCATGACGGTTGCAGTGCAGGCTCCACCGGAGTCACCTAGTGCAG”, 3240 fluorescence intensity (a.u.). Turning to “TCTGTTCGGCTGCCCGCGCTGCCAGCACGAACAGTGCTGCCGGAGTCACCTAGTGCAG”, the binding signal is 4090 fluorescence intensity (a.u.). The result for “CTTTATGAGAATGTTAATGCAATTTCTTGGATGCTTAGTGCGGAGTCACCTAGTGCAG” reads 12900 fluorescence intensity (a.u.); that for “TCTTCGTCGACACCACCCCAGCCAGTGACTCCACATGCTCCGGAGTCACCTAGTGCAG”, 3320 fluorescence intensity (a.u.). The result for “GCCTTTGTGCGCCTTTCTTATGTGTCAAGCCCAAATGCCCCGGAGTCACCTAGTGCAG” reads 4700 fluorescence intensity (a.u.). The result for “AGAGGAGAAGAGATCCAGGGAAGGGAGAGAAACTGTGTGTCGGAGTCACCTAGTGCAG” reads 20500 fluorescence intensity (a.u.); that for “CCCAAAGACAAAACCCACGAAACGTGTCGTGTCGCCCATCCGGAGTCACCTAGTGCAG”, 3900 fluorescence intensity (a.u.); that for “AGGAGGTGAGTGGCTGATCTCCTATTCATAATTGATCATGCGGAGTCACCTAGTGCAG”, 3270 fluorescence intensity (a.u.).

On to “TTCTTCTTCAGTGTCGTGGCAATCACTATCTGAACTTTTGCGGAGTCACCTAGTGCAG”, for which the binding signal was 5000 fluorescence intensity (a.u.). The result for “CCGTCGACATGGCCAATCAATCAATCCTCCAGCAAATTCACGGAGTCACCTAGTGCAG” reads 3520 fluorescence intensity (a.u.). To “CACCGTGGATCCCAATCCCACGCCACATCCCACGCCAGCACGGAGTCACCTAGTGCAG” belongs 7830 fluorescence intensity (a.u.). To “GTCGCTTGTAACTTGTAAGGCGTGTGACTGTTGCCGTGATCGGAGTCACCTAGTGCAG” belongs 3480 fluorescence intensity (a.u.); to “AAAGGGAGTTGTTAACCGGGACTAATCGTTTCCCCTTAGTCGGAGTCACCTAGTGCAG”, 32300 fluorescence intensity (a.u.).

As to “CATGAACAATGTGAGGTGTCACAGTGAACAGTATCCTGATCGGAGTCACCTAGTGCAG”, the binding signal is 3490 fluorescence intensity (a.u.). Turning to “AGAGAGTATGGATATTGTGTATACGTCATTACGGCTGCGTCGGAGTCACCTAGTGCAG”, the binding signal was 9190 fluorescence intensity (a.u.). The result for “CATGGCGTTGTGTGCCACGTCACCTTGCCGCCATCTACTTCGGAGTCACCTAGTGCAG” reads 8820 fluorescence intensity (a.u.); that for “GAAGAAGCTCGACGCCGACGTGTTCACGCAGCTCGCTCCCCGGAGTCACCTAGTGCAG”, 5920 fluorescence intensity (a.u.); that for “CGACCCACCCTGTGTCACGCTCGCGCCGCGGCAAGGGAGCCGGAGTCACCTAGTGCAG”, 3290 fluorescence intensity (a.u.). In the case of “GTTTTGCCATGGGTGTTCTCTTTCTTGGTAGTTCTATTTCCGGAGTCACCTAGTGCAG”, the binding signal was 3140 fluorescence intensity (a.u.).

Turning to “GTTTTCTGTTCAACTACTGATAGCATTATCTCAATATGAGCGGAGTCACCTAGTGCAG”, the binding signal was 20100 fluorescence intensity (a.u.). The result for “TACTAGCTATACCCATTAGCTGCTATGGGTGTTGCTGCAGCGGAGTCACCTAGTGCAG” reads 3280 fluorescence intensity (a.u.). The result for “GCCTTGCTTGCTAGCTAGCTTTGAAGCCAGCCAGCAACGCCGGAGTCACCTAGTGCAG” reads 20700 fluorescence intensity (a.u.); that for “TGTGCCAACTTAGCGGCGGCACATGGCCCCAAACCGGAGACGGAGTCACCTAGTGCAG”, 3310 fluorescence intensity (a.u.). Consider “TACTAGCTATATATCTGTTCAACCAGTTCAATCATCCAGTCGGAGTCACCTAGTGCAG”, for which the binding signal was 3240 fluorescence intensity (a.u.). To “CGCTGACGGCAGTCAGGCGCAGAGGCGAAGTGCGGCGTCACGGAGTCACCTAGTGCAG” belongs 3280 fluorescence intensity (a.u.).
